Data as given in PubChem BioAssay AID1159578 (Peter MacCallum Cancer Centre, 2015)
The whole screen tested about 18,000 reagents; shown is a part drawn at random. About 1,030 of all reagents (5.7%) were called active. 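Inactive calls also include pools with fewer than 3300 nuclei, whose migration was not assessed.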 Raw values are not corrected between plates. Further read-outs or replicates are left out here.

Aim: 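Knock-downs that alter how fast lymphatic endothelial cells migrate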 (primary screen)
System: human lymphatic endothelial cells
Reagent: siRNA pool against human genes, 40 nM
Duration: 48 h after transfection
Read-out: 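Cells stained with dye and imaged after a scratch; covered wound area and nuclei counted, duplicates averaged, migration set against mock wells and turned into a robust z-score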
Reading the numbers: migration robust z-score: higher = faster migration into the scratch; nuclei per well: higher = more cells in the well
Hit rule: 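Pools averaging fewer than 3300 nuclei are never called; remaining pools count as changed when migration robust z lies outside -2 to 2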
Calls: active = migration changed; inactive = no migration change, or too few cells

BAGE5
- migration robust z-score: -0.1
- nuclei per well, duplicate mean: 6212
- Call: inactive

IL5RA
- migration robust z-score: 0.6
- nuclei per well, duplicate mean: 7358
- Call: inactive

NOL4L
- migration robust z-score: -0.01
- nuclei per well, duplicate mean: 6134
- Call: inactive

CACNA1F
- migration robust z-score: 0.57
- nuclei per well, duplicate mean: 5738
- Call: inactive

UBE2W
- migration robust z-score: 1.25
- nuclei per well, duplicate mean: 4800
- Call: inactive

HELLS
- migration robust z-score: -0.02
- nuclei per well, duplicate mean: 5327
- Call: inactive

SLC30A1
- migration robust z-score: 0.16
- nuclei per well, duplicate mean: 5615
- Call: inactive

TPK1
- migration robust z-score: -0.54
- nuclei per well, duplicate mean: 3482
- Call: inactive

SLC35F4
- migration robust z-score: 0.42
- nuclei per well, duplicate mean: 5364
- Call: inactive

H3C11
- migration robust z-score: -0.38
- nuclei per well, duplicate mean: 4530
- Call: inactive

XAB2
- migration robust z-score: -2.28
- nuclei per well, duplicate mean: 4412
- Call: active

TMEM234
- migration robust z-score: -0.26
- nuclei per well, duplicate mean: 7158
- Call: inactive

2 of these entries, reformatted:
| gene | migration robust z-score | nuclei per well, duplicate mean | Call |
| --- | --- | --- | --- |
| SLC30A1 | 0.16 | 5615 | inactive |
| TPK1 | -0.54 | 3482 | inactive |
